Results taken from article PMC10272126.

Amino acid sequences for entries named in this document (tags omitted).
UniProt Q8WXI2: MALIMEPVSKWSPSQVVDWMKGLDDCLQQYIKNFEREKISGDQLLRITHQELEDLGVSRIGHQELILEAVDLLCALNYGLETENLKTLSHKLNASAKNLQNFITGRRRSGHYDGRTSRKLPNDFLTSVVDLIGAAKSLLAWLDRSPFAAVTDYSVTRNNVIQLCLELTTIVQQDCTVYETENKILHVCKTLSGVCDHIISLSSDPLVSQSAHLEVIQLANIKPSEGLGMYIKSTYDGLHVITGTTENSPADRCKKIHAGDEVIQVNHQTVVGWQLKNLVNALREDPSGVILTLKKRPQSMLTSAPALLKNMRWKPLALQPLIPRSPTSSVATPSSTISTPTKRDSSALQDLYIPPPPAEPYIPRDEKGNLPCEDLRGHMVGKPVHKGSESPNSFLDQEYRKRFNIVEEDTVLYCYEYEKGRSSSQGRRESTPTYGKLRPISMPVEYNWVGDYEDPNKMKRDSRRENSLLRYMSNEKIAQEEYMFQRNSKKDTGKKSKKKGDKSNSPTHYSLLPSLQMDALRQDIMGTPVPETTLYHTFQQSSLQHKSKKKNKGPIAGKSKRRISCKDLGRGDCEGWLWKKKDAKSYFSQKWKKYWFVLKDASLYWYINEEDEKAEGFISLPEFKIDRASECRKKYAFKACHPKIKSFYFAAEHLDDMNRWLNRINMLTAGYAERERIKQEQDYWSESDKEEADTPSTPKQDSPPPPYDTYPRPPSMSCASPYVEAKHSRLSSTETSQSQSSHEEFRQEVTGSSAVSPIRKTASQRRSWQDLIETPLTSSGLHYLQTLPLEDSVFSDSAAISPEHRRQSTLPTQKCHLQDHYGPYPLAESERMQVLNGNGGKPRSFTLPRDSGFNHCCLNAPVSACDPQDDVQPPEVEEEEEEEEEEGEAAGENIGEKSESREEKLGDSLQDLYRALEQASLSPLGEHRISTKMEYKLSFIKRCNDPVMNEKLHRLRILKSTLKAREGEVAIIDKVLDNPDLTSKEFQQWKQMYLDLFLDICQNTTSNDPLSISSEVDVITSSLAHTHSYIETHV
UniProt Q9C0H5: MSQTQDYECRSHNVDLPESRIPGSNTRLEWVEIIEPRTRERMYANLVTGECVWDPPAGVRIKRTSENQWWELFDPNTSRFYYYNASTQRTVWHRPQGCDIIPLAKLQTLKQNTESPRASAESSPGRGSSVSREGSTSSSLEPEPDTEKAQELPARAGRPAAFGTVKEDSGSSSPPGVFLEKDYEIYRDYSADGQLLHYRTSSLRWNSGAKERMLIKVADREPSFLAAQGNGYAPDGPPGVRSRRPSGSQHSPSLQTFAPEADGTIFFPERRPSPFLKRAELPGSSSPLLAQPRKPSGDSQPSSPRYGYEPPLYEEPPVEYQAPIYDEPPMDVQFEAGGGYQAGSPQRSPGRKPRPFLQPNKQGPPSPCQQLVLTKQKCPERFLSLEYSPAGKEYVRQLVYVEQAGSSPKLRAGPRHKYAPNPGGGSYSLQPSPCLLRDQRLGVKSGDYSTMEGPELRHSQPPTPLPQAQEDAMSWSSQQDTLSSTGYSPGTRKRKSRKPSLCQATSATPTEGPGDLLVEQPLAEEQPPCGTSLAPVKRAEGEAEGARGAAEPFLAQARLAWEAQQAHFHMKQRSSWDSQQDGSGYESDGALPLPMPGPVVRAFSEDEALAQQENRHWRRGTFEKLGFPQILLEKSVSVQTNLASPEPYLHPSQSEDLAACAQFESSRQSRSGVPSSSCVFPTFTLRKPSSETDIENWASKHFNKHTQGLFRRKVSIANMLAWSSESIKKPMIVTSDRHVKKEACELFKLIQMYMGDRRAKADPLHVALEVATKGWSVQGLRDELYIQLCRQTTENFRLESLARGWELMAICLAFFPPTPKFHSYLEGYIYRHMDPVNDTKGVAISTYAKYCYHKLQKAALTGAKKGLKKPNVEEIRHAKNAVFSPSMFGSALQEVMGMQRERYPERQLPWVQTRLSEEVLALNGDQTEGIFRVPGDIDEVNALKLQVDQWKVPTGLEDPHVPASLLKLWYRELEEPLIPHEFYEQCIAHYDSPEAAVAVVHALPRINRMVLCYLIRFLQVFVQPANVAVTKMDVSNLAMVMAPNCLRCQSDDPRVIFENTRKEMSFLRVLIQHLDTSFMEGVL
UniProt Q15438: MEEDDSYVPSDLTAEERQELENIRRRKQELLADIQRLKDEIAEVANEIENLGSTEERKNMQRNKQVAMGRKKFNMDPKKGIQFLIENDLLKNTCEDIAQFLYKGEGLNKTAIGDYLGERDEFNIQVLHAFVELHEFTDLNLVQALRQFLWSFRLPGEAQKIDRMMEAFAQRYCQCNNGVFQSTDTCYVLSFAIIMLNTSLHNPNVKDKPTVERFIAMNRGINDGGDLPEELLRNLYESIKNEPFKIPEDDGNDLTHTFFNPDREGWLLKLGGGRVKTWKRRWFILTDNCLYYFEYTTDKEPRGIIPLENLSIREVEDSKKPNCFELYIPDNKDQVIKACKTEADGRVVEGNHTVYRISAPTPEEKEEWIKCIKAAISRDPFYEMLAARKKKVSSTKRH
UniProt Q99418: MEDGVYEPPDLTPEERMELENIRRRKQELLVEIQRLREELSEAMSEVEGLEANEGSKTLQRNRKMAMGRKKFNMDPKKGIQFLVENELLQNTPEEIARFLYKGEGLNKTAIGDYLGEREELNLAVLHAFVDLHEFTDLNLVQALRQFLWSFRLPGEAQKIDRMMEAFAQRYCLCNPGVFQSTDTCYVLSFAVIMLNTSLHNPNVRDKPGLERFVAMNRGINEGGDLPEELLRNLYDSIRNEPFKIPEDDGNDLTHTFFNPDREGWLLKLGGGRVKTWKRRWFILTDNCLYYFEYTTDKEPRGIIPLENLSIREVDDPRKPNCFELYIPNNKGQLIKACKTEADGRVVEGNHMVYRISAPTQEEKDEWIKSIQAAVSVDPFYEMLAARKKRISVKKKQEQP
UniProt O43739: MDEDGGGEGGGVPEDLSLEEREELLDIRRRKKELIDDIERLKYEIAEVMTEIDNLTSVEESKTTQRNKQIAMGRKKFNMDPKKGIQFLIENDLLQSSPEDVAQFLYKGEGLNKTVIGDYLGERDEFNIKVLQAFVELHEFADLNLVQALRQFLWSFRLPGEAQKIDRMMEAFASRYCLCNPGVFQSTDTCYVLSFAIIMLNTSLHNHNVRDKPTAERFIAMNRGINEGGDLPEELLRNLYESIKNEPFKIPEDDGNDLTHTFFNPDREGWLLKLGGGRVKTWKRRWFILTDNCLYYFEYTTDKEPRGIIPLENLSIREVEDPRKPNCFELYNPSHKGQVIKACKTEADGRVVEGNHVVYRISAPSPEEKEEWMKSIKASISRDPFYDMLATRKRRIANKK
UniProt Q8N8I0: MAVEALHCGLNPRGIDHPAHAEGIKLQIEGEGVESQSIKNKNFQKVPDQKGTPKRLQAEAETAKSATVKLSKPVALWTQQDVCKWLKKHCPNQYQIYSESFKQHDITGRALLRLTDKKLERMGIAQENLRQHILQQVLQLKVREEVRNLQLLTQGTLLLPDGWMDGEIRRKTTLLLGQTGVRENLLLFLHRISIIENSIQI
UniProt Q14160: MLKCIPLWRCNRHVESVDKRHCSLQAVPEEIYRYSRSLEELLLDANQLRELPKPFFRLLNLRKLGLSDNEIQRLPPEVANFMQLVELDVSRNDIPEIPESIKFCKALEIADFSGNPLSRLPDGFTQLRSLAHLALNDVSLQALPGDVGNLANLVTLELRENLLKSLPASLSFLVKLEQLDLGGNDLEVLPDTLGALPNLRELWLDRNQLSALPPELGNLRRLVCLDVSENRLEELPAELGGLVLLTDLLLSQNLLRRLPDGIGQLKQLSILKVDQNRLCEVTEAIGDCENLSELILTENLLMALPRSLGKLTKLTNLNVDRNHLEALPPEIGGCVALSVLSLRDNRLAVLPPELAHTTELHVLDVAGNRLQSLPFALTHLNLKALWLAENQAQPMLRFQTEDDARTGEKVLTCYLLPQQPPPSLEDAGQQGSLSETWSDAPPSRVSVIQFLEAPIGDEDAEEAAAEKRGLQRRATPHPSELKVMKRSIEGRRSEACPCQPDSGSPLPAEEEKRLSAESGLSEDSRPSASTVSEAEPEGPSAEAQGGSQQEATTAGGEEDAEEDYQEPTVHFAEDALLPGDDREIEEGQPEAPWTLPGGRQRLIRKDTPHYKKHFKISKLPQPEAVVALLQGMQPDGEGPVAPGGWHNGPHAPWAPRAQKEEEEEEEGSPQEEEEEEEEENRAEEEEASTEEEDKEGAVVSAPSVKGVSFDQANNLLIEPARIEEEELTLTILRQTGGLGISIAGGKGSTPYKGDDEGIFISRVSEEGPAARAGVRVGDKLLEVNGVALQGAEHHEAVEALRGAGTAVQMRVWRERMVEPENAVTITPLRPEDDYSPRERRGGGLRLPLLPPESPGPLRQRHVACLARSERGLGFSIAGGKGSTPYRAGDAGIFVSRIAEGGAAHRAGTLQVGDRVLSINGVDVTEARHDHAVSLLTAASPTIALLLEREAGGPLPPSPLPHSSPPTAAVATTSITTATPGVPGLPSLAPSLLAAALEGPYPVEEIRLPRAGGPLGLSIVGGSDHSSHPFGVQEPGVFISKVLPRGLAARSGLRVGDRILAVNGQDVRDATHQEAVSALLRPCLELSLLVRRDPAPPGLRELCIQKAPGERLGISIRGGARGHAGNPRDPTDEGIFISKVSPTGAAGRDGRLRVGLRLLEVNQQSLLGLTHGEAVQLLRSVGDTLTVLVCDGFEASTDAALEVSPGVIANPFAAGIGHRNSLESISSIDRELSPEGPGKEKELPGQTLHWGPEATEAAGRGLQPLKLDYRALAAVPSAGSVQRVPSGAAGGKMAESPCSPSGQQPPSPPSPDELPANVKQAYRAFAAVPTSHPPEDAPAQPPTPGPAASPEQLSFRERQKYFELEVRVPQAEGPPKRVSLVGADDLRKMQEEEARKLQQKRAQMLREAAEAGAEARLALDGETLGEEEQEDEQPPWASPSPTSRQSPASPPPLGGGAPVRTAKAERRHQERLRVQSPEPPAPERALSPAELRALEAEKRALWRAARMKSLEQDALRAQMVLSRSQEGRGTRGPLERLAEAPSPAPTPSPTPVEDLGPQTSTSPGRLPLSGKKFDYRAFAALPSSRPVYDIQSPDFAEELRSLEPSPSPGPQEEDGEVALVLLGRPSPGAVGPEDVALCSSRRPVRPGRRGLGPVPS
UniProt Q9UKE5: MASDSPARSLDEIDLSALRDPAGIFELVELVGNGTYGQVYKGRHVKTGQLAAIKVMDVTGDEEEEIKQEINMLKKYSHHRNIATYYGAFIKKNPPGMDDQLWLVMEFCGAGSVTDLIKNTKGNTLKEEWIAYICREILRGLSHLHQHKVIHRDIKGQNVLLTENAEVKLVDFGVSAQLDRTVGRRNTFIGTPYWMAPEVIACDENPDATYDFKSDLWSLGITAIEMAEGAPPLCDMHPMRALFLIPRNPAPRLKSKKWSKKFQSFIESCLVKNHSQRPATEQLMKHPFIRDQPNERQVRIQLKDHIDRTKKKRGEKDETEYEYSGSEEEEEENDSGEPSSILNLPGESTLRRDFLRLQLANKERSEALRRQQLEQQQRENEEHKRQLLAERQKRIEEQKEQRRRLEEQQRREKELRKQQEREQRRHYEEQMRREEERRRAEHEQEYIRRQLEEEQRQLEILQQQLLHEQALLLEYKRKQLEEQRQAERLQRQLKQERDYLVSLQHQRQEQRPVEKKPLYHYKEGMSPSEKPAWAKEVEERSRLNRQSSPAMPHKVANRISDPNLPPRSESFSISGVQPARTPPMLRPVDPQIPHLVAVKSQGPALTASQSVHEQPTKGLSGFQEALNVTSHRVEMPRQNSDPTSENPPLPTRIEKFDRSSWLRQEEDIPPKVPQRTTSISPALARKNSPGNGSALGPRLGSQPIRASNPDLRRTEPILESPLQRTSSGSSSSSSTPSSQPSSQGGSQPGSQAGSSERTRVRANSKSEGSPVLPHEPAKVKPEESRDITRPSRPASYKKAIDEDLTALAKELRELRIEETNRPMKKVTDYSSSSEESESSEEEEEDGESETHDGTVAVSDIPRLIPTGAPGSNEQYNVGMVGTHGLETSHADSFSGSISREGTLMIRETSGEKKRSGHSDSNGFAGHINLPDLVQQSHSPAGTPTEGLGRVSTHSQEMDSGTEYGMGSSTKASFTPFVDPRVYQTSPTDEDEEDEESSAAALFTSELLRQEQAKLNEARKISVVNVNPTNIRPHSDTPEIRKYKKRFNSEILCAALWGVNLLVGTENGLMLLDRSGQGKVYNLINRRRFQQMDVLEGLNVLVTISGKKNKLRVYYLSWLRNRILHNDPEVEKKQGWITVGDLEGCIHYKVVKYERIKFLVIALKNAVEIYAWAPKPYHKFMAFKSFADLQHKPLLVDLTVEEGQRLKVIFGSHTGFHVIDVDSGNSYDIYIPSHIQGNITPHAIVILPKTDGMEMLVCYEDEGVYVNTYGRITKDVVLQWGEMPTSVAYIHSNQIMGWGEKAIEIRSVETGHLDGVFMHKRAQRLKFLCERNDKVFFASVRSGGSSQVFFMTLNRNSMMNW

What was measured:
[1] = biological target: FLAG-BirA*-CNK2A (human) (UniProt Q8WXI2); test: proximity labelling; BioID in Flp-In T-REx HEK293 cells expressing FLAG-BirA*-tagged CNK baits; 1 ug/mL tetracycline and 50 uM biotin for 24 h; streptavidin pull-down from RIPA lysate, mass spectrometry, SAINTexpress score >= 0.8
[2] = biological target: T1, FLAG-BirA*-CNK1 (human) (UniProt Q969H4); test: as above
T1 sequence: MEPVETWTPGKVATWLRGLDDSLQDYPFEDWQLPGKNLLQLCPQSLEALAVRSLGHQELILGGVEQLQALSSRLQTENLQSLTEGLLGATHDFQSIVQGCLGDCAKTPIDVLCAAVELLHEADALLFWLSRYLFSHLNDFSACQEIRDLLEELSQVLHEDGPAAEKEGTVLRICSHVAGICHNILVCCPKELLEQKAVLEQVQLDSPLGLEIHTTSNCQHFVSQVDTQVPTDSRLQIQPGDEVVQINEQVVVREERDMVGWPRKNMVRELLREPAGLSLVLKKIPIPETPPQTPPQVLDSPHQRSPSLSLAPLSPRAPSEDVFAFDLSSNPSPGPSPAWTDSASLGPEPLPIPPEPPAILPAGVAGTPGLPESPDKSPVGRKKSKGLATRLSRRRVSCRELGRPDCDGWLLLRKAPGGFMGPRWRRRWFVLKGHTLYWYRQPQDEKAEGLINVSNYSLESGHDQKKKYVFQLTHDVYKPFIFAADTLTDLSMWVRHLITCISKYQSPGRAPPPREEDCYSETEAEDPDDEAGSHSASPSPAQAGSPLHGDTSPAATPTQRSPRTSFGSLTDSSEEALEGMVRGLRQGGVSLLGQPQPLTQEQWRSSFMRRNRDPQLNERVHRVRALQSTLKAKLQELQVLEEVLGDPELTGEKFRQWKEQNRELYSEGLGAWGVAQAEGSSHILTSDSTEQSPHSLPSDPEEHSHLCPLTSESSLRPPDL

[3] = biological target: FLAG-BirA*-CNK2A (human) (UniProt Q8WXI2); test: proximity labelling; BioID in Flp-In T-REx U2OS cells expressing FLAG-BirA*-CNK2A; 1 ug/mL tetracycline and 50 uM biotin for 24 h; streptavidin pull-down from RIPA lysate, mass spectrometry, SAINTexpress score >= 0.8

Substance	binding [1]	binding [2]	binding [3]
ARHGAP39 (Vilse) (from UniProt Q9C0H5 1-1083)	binds		
CYTH1 (from UniProt Q15438 1-398)	binds	binds	binds
CYTH2 (from UniProt Q99418 1-400)	binds	binds	binds
CYTH3 (from UniProt O43739 1-400)	binds	binds	binds
MAP4K4 (from UniProt O95819 1-1239)	binds		binds
MINK1 (from UniProt Q8N4C8 1-1332)	binds		binds
NF2 (from UniProt P35240 1-595)	binds		binds
SAMD12 (from UniProt Q8N8I0 1-201)			binds
SCRIB (from UniProt Q14160 1-1655)	binds		binds
TNIK (from UniProt Q9UKE5 1-1360)	binds		binds

No constants are given. Whether binding was seen depends on the method and setting. Binding seen in cells or lysates may run through a third protein. A yes stands for co-enrichment or nearness to the bait. Other partners may have been found. For part of these data: Sequences can lack the tags named with a protein.
